These are yes or no findings as the source states them, for the method shown. Binding seen in cells or lysates may run through a third protein. A yes stands for co-enrichment or nearness to the bait. Other partners may have been found.
Molecular target: FLAG–DCNL1 (WT) (human), Q96GG9
Experiment: affinity purification with mass spectrometry; FLAG(M2)-magnetic bead immunoprecipitation from lysates of HEK-293 cells stably expressing N-terminally FLAG-tagged DCNLs; eluate trypsin-digested, Orbitrap, MaxQuant; interactors with >3 unique peptides plotted
Conditions: remark: other sources report otherwise

binding: binds
B1: Cul2, Q13617 1-745 (protein)
chain: MSLKPRVVDFDETWNKLLTTIKAVVMLEYVERATWNDRFSDIYALCVAYPEPLGERLYTETKIFLENHVRHLHKRVLESEEQVLVMYHRYWEEYSKGADYMDCLYRYLNTQFIKKNKLTEADLQYGYGGVDMNEPLMEIGELALDMWRKLMVEPLQAILIRMLLREIKNDRGGEDPNQKVIHGVINSFVHVEQYKKKFPLKFYQEIFESPFLTETGEYYKQEASNLLQESNCSQYMEKVLGRLKDEEIRCRKYLHPSSYTKVIHECQQRMVADHLQFLHAECHNIIRQEKKNDMANMYVLLRAVSTGLPHMIQELQNHIHDEGLRATSNLTQENMPTLFVESVLEVHGKFVQLINTVLNGDQHFMSALDKALTSVVNYREPKSVCKAPELLAKYCDNLLKKSAKGMTENEVEDRLTSFITVFKYIDDKDVFQKFYARMLAKRLIHGLSMSMDSEEAMINKLKQACGYEFTSKLHRMYTDMSVSADLNNKFNNFIKNQDTVIDLGISFQIYVLQAGAWPLTQAPSSTFAIPQELEKSVQMFELFYSQHFSGRKLTWLHYLCTGEVKMNYLGKPYVAMVTTYQMAVLLAFNNSETVSYKELQDSTQMNEKELTKTIKSLLDVKMINHDSEKEDIDAESSFSLNMNFSSKRTKFKITTSMQKDTPQEMEQTRSAVDEDRKMYLQAAIVRIMKARKVLRHNALIQEVISQSRARFNPSISMIKKCIEVLIDKQYIERSQASADEYSYVA
